The test system of one test is T1, Mcm2-7.
T1 construct: made in house; host or cells: baculovirus-infected insect cells
Description: Mcm2-7 helicase (DNA unwinding) assay. The test is classed as biochemical, Saccharomyces cerevisiae.

A further test has as its system RPE-hTERT cells. Briefly: Human cell viability, MTS method. The test is classed as cell-based. The following applies: RPE-TERT vs ∆erg6 yeast. The procedure: Ciproﬂoxacin is an inhibitor of the Mcm2-7 […]
The viability of human cells was assayed using the MTS method
[1]. Brieﬂy, 1 ×10^5 cells of the human non-tumour cell line RPE-hTERT were plated into each well of a 96-well plate and grown in DMEM: F12 containing 10 % (v/v) FBS in 5 % (v/v) CO2 at 37 ◦ C. The next day, the indicated compounds were titrated into media such that the ﬁnal concentration contained 1 % (v/v)
DMSO. As a negative control, media were also prepared that contained 1 % DMSO but lacked compound. After 48 h, the media was removed and replaced with DMEM lacking phenol red but containing Cell Titer 96 Aqueous One Solution Cell Proliferation
Assay (Promega). After 1 h, the A490 nm was measured using a BioRad iMark Microplate Reader (Hercules). Final data reﬂect the average and standard deviation (S.D.) of three replicates at each compound concentration. […]
(In general: Formazan colour is commonly taken as a measure of viable cells.)

Take `O=C(O)c1cn(C2CC2)c2cc(N3CCNCC3)c(F)cc2c1=O` [Ciprofloxacin, ciprofloxacin]: in the test on Mcm2-7, the “fold lower concentration inhibiting Mcm2-7 than Mcm467” value was “approximately 3 fold” and the “fold lower concentration inhibiting Mcm2-7 than TAg” value is listed as “approximately 6 fold”. Besides, in the test with RPE-hTERT cells, the “fold human cells more sensitive than yeast” value is ~ 2.5 fold.

The values above are taken from PMC3791872, “Ciprofloxacin is an inhibitor of the Mcm2-7 replicative helicase” (Bioscience Reports, 2013).
